Results are given in words; binding and its absence hold for the method and conditions named. In cells and extracts the contact can be indirect. These calls come from enrichment with a bait or labelling near it, and not all partners need be listed.
Target: Caveolin-1 (Cav1) (UniProt Q03135)
Experiment: affinity purification with mass spectrometry; AGS/Cav1 cells infected for 16 h with H. pylori G27 (MOI = 100) or uninfected, lysed at room temperature in MES-buffered 1% (v/v) Triton-X100; precipitation with rabbit polyclonal Cav1 antiserum, silver-stained band (~95 kDa) analysed by MALDI-MS

The chains behind the UniProt entries cited, without tags or fusion partners.
UniProt Q03135: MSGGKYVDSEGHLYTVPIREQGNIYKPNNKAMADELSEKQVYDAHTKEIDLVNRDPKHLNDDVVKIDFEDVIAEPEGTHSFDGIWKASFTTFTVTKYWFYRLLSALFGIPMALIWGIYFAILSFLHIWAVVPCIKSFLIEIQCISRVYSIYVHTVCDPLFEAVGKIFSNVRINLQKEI

B1: p120 Rho GTPase-activating protein/deleted in liver cancer-1 (p120RhoGAP/DLC1), variant 4 (protein, UniProt Q96QB1-4 1-1017)
chain: MKLEISPHRKRSDDSDEDEPCAISGKWTFQRDSKRWSRLEEFDVFSPKQDLVPGSPDDSHPKDGPSPGGTLMDLSERQEVSSVRSLSSTGSLPSHAPPSEDAATPRTNSVISVCSSSNLAGNDDSFGSLPSPKELSSFSFSMKGHEKTAKSKTRSLLKRMESLKLKSSHHSKHKAPSKLGLIISGPILQEGMDEEKLKQLNCVEISALNGNRINVPMVRKRSVSNSTQTSSSSSQSETSSAVSTPSPVTRTRSLSACNKRVGMYLEGFDPFNQSTFNNVVEQNFKNRESYPEDTVFYIPEDHKPGTFPKALTNGSFSPSGNNGSVNWRTGSFHGPGHISLRRENSSDSPKELKRRNSSSSMSSRLSIYDNVPGSILYSSSGDLADLENEDIFPELDDILYHVKGMQRIVNQWSEKFSDEGDSDSALDSVSPCPSSPKQIHLDVDNDRTTPSDLDSTGNSLNEPEEPSEIPERRDSGVGASLTRSNRHRLRWHSFQSSHRPSLNSVSLQINCQSVAQMNLLQKYSLLKLTALLEKYTPSNKHGFSWAVPKFMKRIKVPDYKDRSVFGVPLTVNVQRTGQPLPQSIQQAMRYLRNHCLDQVGLFRKSGVKSRIQALRQMNEGAIDCVNYEGQSAYDVADMLKQYFRDLPEPLMTNKLSETFLQIYQYVPKDQRLQAIKAAIMLLPDENREVLQTLLYFLSDVTAAVKENQMTPTNLAVCLAPSLFHLNTLKRENSSPRVMQRKQSLGKPDQKDLNENLAATQGLAHMIAECKKLFQVPEEMSRCRNSYTEQELKPLTLEALGHLGNDDSADYQHFLQDCVDGLFKEVKEKFKGWVSYSTSEQAELSYKKVSEGPPLRLWRSVIEVPAVPEEILKRLLKEQHLWDVDLLDSKVIEILDSQTEIYQYVQNSMAPHPARDYVVLRTWRTNLPKGACALLLTSVDHDRAPVVGVRVNVLLSRYLIEPCGPGKSKLTYMCRVDLRGHMPEWYTKSFGHLCAAEVVKIRDSFSNQNTETKDTKSR
binding: binds

— PMC3623771
